Data published in patent US20220089663A1, “PROTEINS AND FLUOROPHORE-CONTAINING COMPOUNDS SELECTIVE FOR NaV1.7” (MEMORIAL SLOAN KETTERING CANCER CENTER, priority 2019, published 2022).
Where “and” joins values, the source holds several entries; their conditions need not be identical. Identical values can stand only once. Not every detail of the peptide structures is certain; ends, links or a residue may be inferred.

Protein sequences, listed by entry. Tags and fused reporters are not part of them.
UniProt Q00975, whole entry: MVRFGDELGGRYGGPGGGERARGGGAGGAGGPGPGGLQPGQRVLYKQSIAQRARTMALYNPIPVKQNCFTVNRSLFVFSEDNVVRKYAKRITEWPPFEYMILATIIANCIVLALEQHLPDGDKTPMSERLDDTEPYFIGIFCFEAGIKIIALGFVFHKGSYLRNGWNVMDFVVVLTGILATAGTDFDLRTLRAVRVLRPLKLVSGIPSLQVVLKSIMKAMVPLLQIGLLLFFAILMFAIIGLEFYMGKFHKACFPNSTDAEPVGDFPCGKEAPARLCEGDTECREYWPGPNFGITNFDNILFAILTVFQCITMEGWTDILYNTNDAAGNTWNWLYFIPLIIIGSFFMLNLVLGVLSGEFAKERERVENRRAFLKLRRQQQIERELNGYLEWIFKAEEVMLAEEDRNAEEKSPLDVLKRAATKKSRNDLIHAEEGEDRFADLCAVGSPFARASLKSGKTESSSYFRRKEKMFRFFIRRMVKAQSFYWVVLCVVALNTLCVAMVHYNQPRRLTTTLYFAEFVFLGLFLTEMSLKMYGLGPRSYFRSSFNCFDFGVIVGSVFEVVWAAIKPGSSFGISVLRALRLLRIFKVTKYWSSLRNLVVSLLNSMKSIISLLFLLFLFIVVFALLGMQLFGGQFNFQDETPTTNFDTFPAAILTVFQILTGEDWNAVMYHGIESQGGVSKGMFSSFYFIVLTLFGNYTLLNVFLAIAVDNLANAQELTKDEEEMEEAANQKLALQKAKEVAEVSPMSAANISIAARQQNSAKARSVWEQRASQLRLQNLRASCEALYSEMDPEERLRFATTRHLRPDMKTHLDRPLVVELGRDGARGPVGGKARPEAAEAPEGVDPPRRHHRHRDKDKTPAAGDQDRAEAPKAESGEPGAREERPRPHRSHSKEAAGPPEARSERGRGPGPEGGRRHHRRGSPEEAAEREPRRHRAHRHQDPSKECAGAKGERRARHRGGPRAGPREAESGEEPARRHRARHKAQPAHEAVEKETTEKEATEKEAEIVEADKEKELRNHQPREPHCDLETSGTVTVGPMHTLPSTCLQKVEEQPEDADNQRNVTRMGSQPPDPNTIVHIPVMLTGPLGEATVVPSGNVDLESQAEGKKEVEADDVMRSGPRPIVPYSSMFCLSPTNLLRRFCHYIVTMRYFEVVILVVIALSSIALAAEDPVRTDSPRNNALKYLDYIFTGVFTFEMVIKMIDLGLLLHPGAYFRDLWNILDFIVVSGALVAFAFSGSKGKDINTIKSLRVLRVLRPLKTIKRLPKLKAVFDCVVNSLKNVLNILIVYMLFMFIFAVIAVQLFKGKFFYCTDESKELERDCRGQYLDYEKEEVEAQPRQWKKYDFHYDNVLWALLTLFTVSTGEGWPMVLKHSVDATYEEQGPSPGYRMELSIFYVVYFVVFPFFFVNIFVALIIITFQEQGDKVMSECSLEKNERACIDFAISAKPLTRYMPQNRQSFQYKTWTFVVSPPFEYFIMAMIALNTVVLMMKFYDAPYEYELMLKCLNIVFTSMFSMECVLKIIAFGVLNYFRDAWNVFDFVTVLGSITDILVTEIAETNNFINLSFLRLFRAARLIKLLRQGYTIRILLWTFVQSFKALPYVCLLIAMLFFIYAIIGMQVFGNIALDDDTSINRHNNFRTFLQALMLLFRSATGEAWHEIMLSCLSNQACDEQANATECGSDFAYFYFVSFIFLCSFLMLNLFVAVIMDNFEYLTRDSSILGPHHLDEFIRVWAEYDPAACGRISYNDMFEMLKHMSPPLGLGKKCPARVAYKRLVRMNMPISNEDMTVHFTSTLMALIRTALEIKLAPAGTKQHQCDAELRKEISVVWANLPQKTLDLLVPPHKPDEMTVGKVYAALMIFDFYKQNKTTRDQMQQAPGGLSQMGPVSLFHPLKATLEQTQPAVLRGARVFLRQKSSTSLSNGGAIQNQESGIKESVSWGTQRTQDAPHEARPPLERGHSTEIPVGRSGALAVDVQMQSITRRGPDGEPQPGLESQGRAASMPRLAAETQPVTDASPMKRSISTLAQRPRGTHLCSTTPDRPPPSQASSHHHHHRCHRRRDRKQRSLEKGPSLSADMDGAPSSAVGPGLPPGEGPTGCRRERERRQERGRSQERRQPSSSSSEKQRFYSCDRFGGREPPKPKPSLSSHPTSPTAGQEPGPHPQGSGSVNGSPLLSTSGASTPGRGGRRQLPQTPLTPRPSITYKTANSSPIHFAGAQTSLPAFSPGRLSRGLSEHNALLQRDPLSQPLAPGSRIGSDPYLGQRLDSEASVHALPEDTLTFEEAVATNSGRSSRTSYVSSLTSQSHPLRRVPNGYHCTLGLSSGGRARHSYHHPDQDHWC
UniProt Q13698, whole entry: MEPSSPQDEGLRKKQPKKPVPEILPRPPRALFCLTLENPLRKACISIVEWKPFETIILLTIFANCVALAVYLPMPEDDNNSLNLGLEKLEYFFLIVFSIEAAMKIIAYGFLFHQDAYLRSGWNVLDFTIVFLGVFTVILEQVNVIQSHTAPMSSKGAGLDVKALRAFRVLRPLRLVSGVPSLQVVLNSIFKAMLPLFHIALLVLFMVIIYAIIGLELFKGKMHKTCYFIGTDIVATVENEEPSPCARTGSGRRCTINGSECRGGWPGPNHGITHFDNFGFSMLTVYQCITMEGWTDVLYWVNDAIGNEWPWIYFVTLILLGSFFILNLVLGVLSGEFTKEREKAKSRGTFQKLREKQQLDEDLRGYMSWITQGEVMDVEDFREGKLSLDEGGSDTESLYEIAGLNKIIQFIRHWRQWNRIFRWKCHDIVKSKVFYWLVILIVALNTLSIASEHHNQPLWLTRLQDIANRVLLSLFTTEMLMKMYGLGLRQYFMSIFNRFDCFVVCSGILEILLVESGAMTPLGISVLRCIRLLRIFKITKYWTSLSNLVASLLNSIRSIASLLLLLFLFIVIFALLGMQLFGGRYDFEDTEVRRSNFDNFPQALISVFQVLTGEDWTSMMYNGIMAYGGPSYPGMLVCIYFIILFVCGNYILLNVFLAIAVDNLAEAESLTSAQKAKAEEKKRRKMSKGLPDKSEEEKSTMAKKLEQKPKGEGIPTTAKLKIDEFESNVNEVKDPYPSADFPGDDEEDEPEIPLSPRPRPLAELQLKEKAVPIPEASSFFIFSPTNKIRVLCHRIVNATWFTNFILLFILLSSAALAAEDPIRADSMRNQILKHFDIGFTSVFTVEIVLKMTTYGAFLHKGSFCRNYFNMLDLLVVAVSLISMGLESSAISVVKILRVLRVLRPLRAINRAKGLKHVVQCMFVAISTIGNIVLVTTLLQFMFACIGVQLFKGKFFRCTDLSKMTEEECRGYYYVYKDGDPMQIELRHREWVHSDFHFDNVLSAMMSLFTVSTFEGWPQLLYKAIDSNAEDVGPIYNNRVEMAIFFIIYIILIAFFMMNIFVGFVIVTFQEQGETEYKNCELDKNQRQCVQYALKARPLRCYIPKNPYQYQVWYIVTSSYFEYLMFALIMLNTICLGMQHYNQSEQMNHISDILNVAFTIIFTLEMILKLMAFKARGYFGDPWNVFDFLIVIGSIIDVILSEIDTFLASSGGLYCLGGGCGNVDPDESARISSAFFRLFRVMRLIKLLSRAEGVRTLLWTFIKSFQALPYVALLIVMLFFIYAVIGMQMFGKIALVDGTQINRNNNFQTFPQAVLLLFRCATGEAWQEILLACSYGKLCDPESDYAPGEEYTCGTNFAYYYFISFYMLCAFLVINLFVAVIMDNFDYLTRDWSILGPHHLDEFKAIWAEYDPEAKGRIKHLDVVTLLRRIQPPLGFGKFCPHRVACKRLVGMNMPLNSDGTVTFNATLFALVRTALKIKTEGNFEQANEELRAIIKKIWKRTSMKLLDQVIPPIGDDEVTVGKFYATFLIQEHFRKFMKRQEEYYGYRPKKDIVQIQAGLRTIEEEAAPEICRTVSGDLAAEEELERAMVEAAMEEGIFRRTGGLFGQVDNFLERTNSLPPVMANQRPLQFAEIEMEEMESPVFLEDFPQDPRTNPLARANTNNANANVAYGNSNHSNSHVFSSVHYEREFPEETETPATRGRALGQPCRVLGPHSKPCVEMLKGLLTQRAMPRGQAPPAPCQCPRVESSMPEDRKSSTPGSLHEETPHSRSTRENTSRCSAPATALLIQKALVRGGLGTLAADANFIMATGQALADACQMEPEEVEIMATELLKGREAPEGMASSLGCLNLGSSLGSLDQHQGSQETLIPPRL
UniProt Q9NY46, whole entry: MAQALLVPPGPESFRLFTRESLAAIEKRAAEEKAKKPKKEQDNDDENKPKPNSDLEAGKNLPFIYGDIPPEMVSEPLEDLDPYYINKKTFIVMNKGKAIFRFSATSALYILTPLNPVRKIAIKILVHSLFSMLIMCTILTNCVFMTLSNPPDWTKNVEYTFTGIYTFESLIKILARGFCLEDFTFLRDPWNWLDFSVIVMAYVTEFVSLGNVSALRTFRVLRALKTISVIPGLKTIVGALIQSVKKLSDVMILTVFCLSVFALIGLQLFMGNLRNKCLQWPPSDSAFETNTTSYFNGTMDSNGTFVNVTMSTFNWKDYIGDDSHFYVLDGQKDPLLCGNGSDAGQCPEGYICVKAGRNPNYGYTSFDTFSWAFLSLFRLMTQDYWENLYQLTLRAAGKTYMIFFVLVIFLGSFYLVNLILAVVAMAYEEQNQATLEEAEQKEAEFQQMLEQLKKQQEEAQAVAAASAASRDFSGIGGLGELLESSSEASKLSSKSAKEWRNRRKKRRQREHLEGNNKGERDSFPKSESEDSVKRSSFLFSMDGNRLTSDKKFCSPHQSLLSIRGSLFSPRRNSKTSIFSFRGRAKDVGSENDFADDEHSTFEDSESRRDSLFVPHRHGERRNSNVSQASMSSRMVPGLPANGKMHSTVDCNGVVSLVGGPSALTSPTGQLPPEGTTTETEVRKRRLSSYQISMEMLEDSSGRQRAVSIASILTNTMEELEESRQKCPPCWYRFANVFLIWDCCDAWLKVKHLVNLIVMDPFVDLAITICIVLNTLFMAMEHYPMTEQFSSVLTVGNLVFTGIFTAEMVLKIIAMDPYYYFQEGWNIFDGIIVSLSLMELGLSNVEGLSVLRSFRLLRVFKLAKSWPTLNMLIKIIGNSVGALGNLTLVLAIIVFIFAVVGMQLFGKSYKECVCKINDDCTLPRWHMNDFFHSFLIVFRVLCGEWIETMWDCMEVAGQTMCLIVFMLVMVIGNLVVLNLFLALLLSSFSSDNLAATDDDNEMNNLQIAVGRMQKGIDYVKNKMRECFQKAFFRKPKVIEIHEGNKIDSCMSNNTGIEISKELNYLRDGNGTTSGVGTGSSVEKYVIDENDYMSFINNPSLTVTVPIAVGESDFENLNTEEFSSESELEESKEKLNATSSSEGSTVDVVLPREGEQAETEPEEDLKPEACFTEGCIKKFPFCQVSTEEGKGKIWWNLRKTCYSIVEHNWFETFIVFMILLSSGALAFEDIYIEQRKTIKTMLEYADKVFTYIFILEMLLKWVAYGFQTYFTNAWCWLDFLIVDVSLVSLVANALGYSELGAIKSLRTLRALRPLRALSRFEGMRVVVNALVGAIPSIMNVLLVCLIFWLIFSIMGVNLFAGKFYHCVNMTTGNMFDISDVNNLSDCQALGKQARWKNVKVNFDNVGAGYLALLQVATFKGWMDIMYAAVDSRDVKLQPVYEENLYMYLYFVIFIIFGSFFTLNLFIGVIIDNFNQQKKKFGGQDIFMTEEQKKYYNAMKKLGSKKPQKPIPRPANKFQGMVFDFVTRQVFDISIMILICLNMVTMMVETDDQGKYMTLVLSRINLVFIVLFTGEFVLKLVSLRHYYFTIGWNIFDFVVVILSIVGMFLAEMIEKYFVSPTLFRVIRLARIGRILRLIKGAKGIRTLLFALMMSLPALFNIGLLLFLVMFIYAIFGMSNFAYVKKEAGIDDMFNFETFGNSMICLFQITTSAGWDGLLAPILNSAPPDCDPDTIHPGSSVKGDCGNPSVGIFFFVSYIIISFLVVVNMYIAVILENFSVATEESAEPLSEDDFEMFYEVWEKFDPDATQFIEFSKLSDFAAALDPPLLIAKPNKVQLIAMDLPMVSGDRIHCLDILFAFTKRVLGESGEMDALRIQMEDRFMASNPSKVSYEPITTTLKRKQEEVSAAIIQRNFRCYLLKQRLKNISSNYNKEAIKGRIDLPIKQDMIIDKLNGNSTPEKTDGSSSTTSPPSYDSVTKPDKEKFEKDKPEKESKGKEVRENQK

What was measured:
Type in all cases: cell-based
Cav2.2 = Cav2.2 (Homo sapiens, UniProt Q00975); test: Hs1a off-target voltage-gated calcium channel, Cav2.2; conditions: read-out: IC50 Cav2.2; unit printed only in other cells of the column
Nav1.8 = molecular target: T1, Nav1.8 (Homo sapiens, UniProt Q9Y5Y9); test: Hs1a ion channel selectivity, Nav1.8; conditions: read-out: IC50 Nav1.8; unit printed only in other cells of the column
T1 construct: expressed in transfected cells; host or cells: HEK293

hNav1.4 = molecular target: T2, hNav1.4 (Homo sapiens, UniProt P35499); test: automated whole-cell patch clamp (QPatch 16X), HEK293-hNav1.4; conditions: at concentrations up to 3 μM
T2 construct: host or cells: HEK293

Cav1.3 = Cav1.3 (Homo sapiens, UniProt Q01668); test: Hs1a off-target voltage-gated calcium channel, Cav1.3; conditions: read-out: IC50 Cav1.3; unit printed only in other cells of the column
hNav1.5 = molecular target: T3, hNav1.5 (Homo sapiens, UniProt Q14524); test: automated whole-cell patch clamp (QPatch 16X), HEK293-hNav1.5; conditions: at concentrations up to 3 μM
T3 construct: host or cells: HEK293

hNav1.2 = molecular target: T4, hNav1.2 (Homo sapiens, UniProt Q99250); test: automated whole-cell patch clamp (QPatch 16X), HEK293-hNav1.2; conditions: HEK293 cells stably expressing human channel; read-out: IC50 Nav1.2
T4 construct: host or cells: HEK293

Kv2·1 = molecular target: T5, Kv2·1 (Homo sapiens, UniProt Q14721); test: Hs1a off-target voltage-gated potassium channel, Kv2·1; conditions: read-out: IC50 Kv2·1; unit printed only in other cells of the column
T5 sequence (Q14721 1-858): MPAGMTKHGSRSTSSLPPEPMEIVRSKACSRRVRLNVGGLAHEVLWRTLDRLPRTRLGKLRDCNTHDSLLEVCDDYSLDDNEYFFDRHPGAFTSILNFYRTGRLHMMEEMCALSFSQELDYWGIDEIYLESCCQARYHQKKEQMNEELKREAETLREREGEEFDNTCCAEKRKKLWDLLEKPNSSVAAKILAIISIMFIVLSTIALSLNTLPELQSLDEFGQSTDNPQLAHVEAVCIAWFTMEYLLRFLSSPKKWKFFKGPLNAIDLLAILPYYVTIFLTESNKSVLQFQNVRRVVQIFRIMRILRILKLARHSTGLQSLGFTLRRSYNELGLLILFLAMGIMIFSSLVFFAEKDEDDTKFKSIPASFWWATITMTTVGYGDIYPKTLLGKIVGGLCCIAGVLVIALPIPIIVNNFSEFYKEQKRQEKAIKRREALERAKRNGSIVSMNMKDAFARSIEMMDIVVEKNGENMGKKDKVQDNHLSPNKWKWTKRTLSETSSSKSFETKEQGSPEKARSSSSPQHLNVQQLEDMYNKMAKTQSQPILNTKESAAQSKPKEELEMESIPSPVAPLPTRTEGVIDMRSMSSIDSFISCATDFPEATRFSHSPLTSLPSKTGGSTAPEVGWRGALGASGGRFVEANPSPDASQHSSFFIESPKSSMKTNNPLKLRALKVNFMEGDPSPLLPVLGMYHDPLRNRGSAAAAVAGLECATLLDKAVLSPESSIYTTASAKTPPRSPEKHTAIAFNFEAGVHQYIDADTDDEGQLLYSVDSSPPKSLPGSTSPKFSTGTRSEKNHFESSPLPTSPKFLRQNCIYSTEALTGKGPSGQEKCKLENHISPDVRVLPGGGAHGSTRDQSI

Cav1.1 = Cav1.1 (Homo sapiens, UniProt Q13698); test: Hs1a off-target voltage-gated calcium channel, Cav1.1; conditions: read-out: IC50 Cav1.1; unit printed only in other cells of the column
hNav1.7 = molecular target: T6, hNav1.7 (Homo sapiens, UniProt Q15858); test: automated whole-cell patch clamp (QPatch 16X), HEK293-hNav1.7; conditions: HEK293 cells stably expressing human channel; read-out: IC50 Nav1.7
T6 construct: host or cells: HEK293

hNav1.3 = molecular target: T7, hNav1.3 (Homo sapiens, UniProt Q9NY46); test: automated whole-cell patch clamp (QPatch 16X), HEK293-hNav1.3; conditions: HEK293 cells stably expressing human channel; read-out: IC50 Nav1.3
T7 construct: host or cells: HEK293

Nav1.9 = molecular target: T8, Nav1.9 (Homo sapiens, UniProt Q9UI33); test: Hs1a ion channel selectivity, Nav1.9; conditions: read-out: IC50 Nav1.9; unit printed only in other cells of the column
T8 construct: expressed in transfected cells; host or cells: HEK293

For CC(C)C[C@H](NC(=O)[C@H](CCCCN)NC(=O)CNC(=O)[C@H](CCCCN)NC(=O)[C@@H]1CSSC[C@@H]2NC(=O)[C@H](CCCCN)NC(=O)[C@H](CC(=O)O)NC(=O)[C@H](CC(N)=O)NC(=O)[C@H](CCCCN)NC(=O)[C@@H]3CCCN3C(=O)[C@H](CC(N)=O)NC(=O)[C@@H]3CSSC[C@H](NC(=O)[C@H](C(C)C)NC(=O)[C@H](CC(C)C)NC(=O)[C@H](CC(N)=O)NC(=O)[C@H](C)NC(=O)[C@H](CSSC[C@H](NC(=O)[C@H](CC(=O)O)NC(=O)[C@H](CC(N)=O)NC(=O)CN)C(=O)N[C@@H](CC(C)C)C(=O)NCC(=O)N[C@@H](Cc4ccccc4)C(=O)N[C@@H](Cc4c[nH]c5ccccc45)C(=O)N[C@@H](CO)C(=O)N[C@@H](C)C(=O)N3)NC2=O)C(=O)N[C@@H](CO)C(=O)N[C@@H](CO)C(=O)N[C@@H](CCCCN)C(=O)N[C@@H](Cc2c[nH]cn2)C(=O)N[C@@H](CCCCN)C(=O)N[C@@H](Cc2c[nH]c3ccccc23)C(=O)N1)C(=O)O [Hs1a], the IC50 (Cav2.2) was over 3000 nM, the IC50 (Nav1.8) was over 3000 nM and the “affinity for Nav1.4” value (hNav1.4) was “didn't show any affinity”. For the same compound, the IC50 (Cav1.3) was over 3000 nM, the “affinity for Nav1.5” value (hNav1.5) was “didn't show any affinity” and the IC50 (hNav1.2) was 82 nM. For the same compound, the IC50 (Kv2·1) was over 3000 nM, the IC50 (Cav1.1) was over 3000 nM and the IC50 (hNav1.7) was 26.9 nM and 45.7 nM. The IC50 (hNav1.3) was 107 nM and the IC50 (Nav1.9) was over 3000 nM.
